Measurements: PMC5807433, “PP5 (PPP5C) is a phosphatase of Dvl2” (Scientific Reports, 2018)
These are yes or no findings as the source states them, for the method shown. In cells and extracts the contact can be indirect. Binding calls can cover weak binding; strength is not graded here. Sequences can lack the tags named with a protein.

Molecular target: T1, EYFP-PP5-H304A (phosphatase-dead PP5) (human) (UniProt P53041)
T1 sequence: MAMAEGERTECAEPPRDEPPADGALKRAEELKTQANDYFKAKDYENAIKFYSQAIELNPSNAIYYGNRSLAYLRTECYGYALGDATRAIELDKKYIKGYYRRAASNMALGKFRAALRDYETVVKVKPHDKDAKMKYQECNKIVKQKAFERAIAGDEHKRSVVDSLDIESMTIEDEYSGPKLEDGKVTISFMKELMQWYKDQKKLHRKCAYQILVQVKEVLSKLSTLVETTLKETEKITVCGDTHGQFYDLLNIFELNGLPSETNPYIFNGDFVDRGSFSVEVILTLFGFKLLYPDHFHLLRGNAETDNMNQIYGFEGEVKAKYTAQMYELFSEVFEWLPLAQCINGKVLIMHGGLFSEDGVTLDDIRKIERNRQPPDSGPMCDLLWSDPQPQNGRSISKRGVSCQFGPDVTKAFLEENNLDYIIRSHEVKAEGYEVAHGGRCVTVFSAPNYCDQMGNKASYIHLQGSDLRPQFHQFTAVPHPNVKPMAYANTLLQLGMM
Test: co-IP; GFP-Trap beads holding EYFP-PP5-H304A; transfected HEK293T cells; Western blot

- binding: binds
Substance: FLAG-Dvl2 D1 (Dvl2 with the DIX domain deleted) (human) (domain or fragment)
